Reference: US20160017053A1 (IMMUNOGEN, published 2016)
No constants are given. Whether binding was seen depends on the method and setting. A result given as binding can be weak or reduced; the word gives no strength. One block for each binder: values may come before it.

How the values were obtained:
[1] = molecular target: monkey EGFR on Vero cells (African green monkey kidney cell line) (African green monkey); experiment: flow cytometry on Vero cells
[2] = molecular target: monkey EGFR on Vero cells (African green monkey kidney cell line) (African green monkey); experiment: flow cytometry of hybridoma supernatant on Vero cells

binding [1]: binds
B1: rat ML66 antibody (antibody, V domains shown)
VH: QVQLKESGPGLVQPSQTLSLTCTVSGLSLASNSVSWIRQPPGKGLEWMGVIWNHGGTDYNSVIKSRLSISRDTSKSQVFLKMNSLQTEDTAMYFCVRKGGIYFDYWGQGVMVTVSS
VL: DTVLTQSPALAVSPGERVTISCRASESVSTLMHWYQQKSGQQPKLLIYLASHRESGVPARFSGSGSGTDFTLTIDPMEADDTATYYCQQSRNDPWTFGGGTNLELKR
notes: Rat monoclonal antibody purified from hybridoma

binding [1]: binds
binding [2]: binds
B2: murine EGFR-8 antibody (antibody, V domains shown)
VH: EVQLQQSGAELVKPGASVKLSCTTSGFNIKDTYIHWVKKRPEQGLEWIGRIDPTNGNNKYDPKFQGKATITADTSSNTAYLQLSSLTSEDTAVYYCTREDGYRYDDWYFDVWGAGTTVTVSS
VL: QIVLTQSPASMSASPGEKVTMTCSASSSVSYMHWYQQKSGTSPKRWIYATSKLASGVPARFSGSGSGTSYSLTISSMEAEDAATYYCQQWSSNPLTFGAGTKLELKR
notes: Mouse monoclonal antibody purified from hybridoma; also called muEGFR-8
